For test [1], the target named is peptide transporter PepTSt from Streptococcus thermophilus (wild-type) (Streptococcus thermophilus) (UniProt Q5M4H8). Nature of the test: SEC; PepTSt solubilized and purified in DM (0.2%), final SEC step; both purified. In general terms: SEC sorts molecules by how far they enter the pores of the column.
Test [2] has the same target. Nature of the test: SEC; PepTSt purified in DM up to the IMAC step, detergent exchanged to NM (0.4%) in the SEC step; both purified.
Test [3] has the same target. Nature of the test: crystal structure; space group P3_(1)21; protein in 0.4% NM, sitting-drop vapor diffusion, 277 K, 30% PEG550 MME, HEPES pH 8.0, 1.2% Fos-Choline 10; both purified.

These are yes or no findings as the source states them, for the method shown.

B1: peptide transporter PepTSt from Streptococcus thermophilus (wild-type) (natural protein)
chain: MEDKGKTFFGQPLGLSTLFMTEMWERFSYYGMRAILLYYMWFLISTGDLHITRATAASIMAIYASMVYLSGTIGGFVADRIIGARPAVFWGGVLIMLGHIVLALPFGASALFGSIILIIIGTGFLKPNVSTLVGTLYDEHDRRRDAGFSIFVFGINLGAFIAPLIVGAAQEAAGYHVAFSLAAIGMFIGLLVYYFGGKKTLDPHYLRPTDPLAPEEVKPLLVKVSLAVAGFIAIIVVMNLVGWNSLPAYINLLTIVAIAIPVFYFAWMISSVKVTSTEHLRVVSYIPLFIAAVLFWAIEEQGSVVLATFAAERVDSSWFPVSWFQSLNPLFIMLYTPFFAWLWTAWKKNQPSSPTKFAVGLMFAGLSFLLMAIPGALYGTSGKVSPLWLVGSWALVILGEMLISPVGLSVTTKLAPKAFNSQMMSMWFLSSSVGSALNAQLVTLYNAKSEVAYFSYFGLGSVVLGIVLVFLSKRIQGLMQGVE
notes: PepTSt, major facilitator superfamily peptide transporter of Streptococcus thermophilus; Dimer in LMNG and DDM, monomer in DM and NM; also called Ce27; source: Escherichia coli C41, membrane solubilization, purified (IMAC, SEC) in DDM, DM, NM or LMNG; not shown: hexahistidine, C-terminal, cleaved
With B1, the binding entry was “no binding (condition: in DM (0.2%))” in test [1]; “no binding (condition: in NM (0.4%))” in test [2]; “no binding (condition: purified and crystallized in NM)” in test [3].

These data come from PMC5338821, “Structure determination of a major facilitator peptide transporter: Inward facing PepTSt from Streptococcus thermophilus crystallized in space group P3_(1)21” (PLoS ONE, 2017).
